Results on 17 compounds are retold here after PubChem BioAssay AID688 (PCMD, 2007).

Each structure is given as a SMILES string. Some of the results follow.

The test can be described thus: mutant yeast GCN4 reporter luminescence inhibitors – S. cerevisiae, eIF2B-epsilon R284H, Beta-Glo luminescence, primary screen (AID 688). The conditions noted are these: GCN4-lacZ luminescence, measured here: mutant yeast growth, toxicity, concentration not given here.
As to `O=C(OC1CN2CCC1CC2)c1cccc(Cl)c1` (configuration not stated), the growth inhibition was -23.8%.

Regarding `O=P1(Nc2nc3ccc(Cl)cc3s2)COc2ccccc2O1` (configuration not stated), the growth inhibition came out at 14.8%.

In the case of `Cc1c(NP(C)(=O)Oc2ccc(C(C)C)cc2)c(=O)n(-c2ccccc2)n1C` (configuration not stated), the growth inhibition was -2.27%.

With `Cc1c2non([O-])c-2c(C)[n+](=O)[n+]1[O-]`, the growth inhibition is -15.8%.

`Oc1ccccc1CNc1ccccn1`: the growth inhibition was 8.06%.

With `COc1ccc(OP(C)(=O)Nc2ccccn2)cc1` (configuration not stated), the growth inhibition is 17.6%.

`CN1CCCC(OC(=O)C(c2ccccc2)c2ccccc2)C1` (configuration not stated): the growth inhibition was -3.33%.

With `CC1CCN(C(=O)Oc2c(Cl)cc(Cl)c3cccnc23)CC1`, the growth inhibition was -19.1%.

On to `O=[N+]([O-])c1cccc2n[nH]nc12`, for which the growth inhibition turned out to be 22.5%.

Regarding `CCOP(C)(=S)SCC(=O)NC(C)C(=O)O` (configuration not stated), the growth inhibition was 15.8%.

Take `O=C(OC1CN2CCC1CC2)C12CC3CC(CC(C3)C1)C2` (configuration not stated): the growth inhibition was found to be 6.45%.

Consider `Cc1ccc(NP(C)(=O)Oc2ccccc2)c(C)c1` (configuration not stated), for which the growth inhibition was -19.1%.

Consider `Cc1cc(C)cc(OP(C)(=O)Nc2ccccn2)c1` (configuration not stated), for which the growth inhibition stood at 10%.

For the compound `CC1(CBr)Cn2c(nc3ccccc3c2=O)S1` (configuration not stated), the growth inhibition worked out at 0%.

Consider `O=P1(Nc2ccc(Br)cn2)COc2ccccc2OC1`, for which the growth inhibition is 18.5%.

On to `O=P1(Nc2ncccn2)COc2ccccc2OC1`, for which the growth inhibition turned out to be 7.41%.

On to `COc1ccccc1OP(C)(=O)Nc1c(C)cccc1C` (configuration not stated), for which the growth inhibition came out at 22.7%.
